These are yes or no findings as the source states them, for the method shown. Binding seen in cells or lysates may run through a third protein. Binding calls can cover weak binding; strength is not graded here. Tags and fused reporters may be left off the sequences shown.

By UniProt entry, the sequences of proteins in these tests, tags left out. Where a name states a change or a piece, a line headed by the entry shows the natural chain unless it says otherwise.
UniProt E2QCI6: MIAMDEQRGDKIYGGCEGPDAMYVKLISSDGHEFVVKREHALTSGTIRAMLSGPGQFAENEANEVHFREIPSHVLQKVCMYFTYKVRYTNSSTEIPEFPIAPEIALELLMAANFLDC

In the assay the target is EloC-Myc (Elongin C, Myc-tagged) (Drosophila melanogaster) (UniProt E2QCI6). The experiment in a line: co-IP; Myc- and FLAG-tagged proteins co-expressed in S2 cells; native whole cell extracts (no cross-linking); IP with anti-FLAG or anti-Myc, protein G-agarose, Western blot. (Immunoblotting shows a protein as a band on a membrane.)

B1: Corto-FLAG (ETP Corto, FLAG-tagged) (protein, UniProt P41046 1-550)
chain: MTMAACYANYDMSSLSHGMSALSALQQQQQQQQQQHSQTQQQHHHQQQQQHMYHAAVAAHQQQLLQQQQQQQHHRHHHQPANTSSSSNSRHSHAAATQTQVAAAVANSRQQQQQQQQQQQQQQQQQTASSNSNAAPAPSPQKDYSIPLHVDCSVEYELPNQPKPPAGQRVEPLLMIHPCYFRKMESQRRSPFVNNMHATARAVSSSSLSSGAALGGGGSGAAVATAPSSSAARRGARAATSAQQQQQQQQRYQQQQQQLRQQHQQMSQMSQQAHYPQQQSSLVRQHQQQQQQQQQQQRASSNQSQRQSQSQSQSQSHAANSAAAAAAQASIAAAAAGQWDQLAALAARTALTPHHMLHPHSHYAAKGSGGGAGGGKRDAMISGSYGQTAVASGKLQQSQVQQQQPQQQQQHCLPPPPWDATSMLMDRSPMATVPSNYQAGPDTNPMRLYSATPTAGAASGGSASVGGGGAVSGAGATGAVNTATDKLSGKYRQYLRSQRMHPYAAAASLNLAAAAAAAGQTSFVPFSSAATAVAATPTFQHLPQISCYNV
B1: the binding entry is listed as “binds”.

The record behind these values is paper PMC3804554.
